According to the supplement of paper PMC10849652:
Some of the results follow.

By UniProt entry, the sequences of proteins in these tests, tags left out. Where a name states a change or a piece, a line headed by the entry shows the natural chain unless it says otherwise.
UniProt P55265: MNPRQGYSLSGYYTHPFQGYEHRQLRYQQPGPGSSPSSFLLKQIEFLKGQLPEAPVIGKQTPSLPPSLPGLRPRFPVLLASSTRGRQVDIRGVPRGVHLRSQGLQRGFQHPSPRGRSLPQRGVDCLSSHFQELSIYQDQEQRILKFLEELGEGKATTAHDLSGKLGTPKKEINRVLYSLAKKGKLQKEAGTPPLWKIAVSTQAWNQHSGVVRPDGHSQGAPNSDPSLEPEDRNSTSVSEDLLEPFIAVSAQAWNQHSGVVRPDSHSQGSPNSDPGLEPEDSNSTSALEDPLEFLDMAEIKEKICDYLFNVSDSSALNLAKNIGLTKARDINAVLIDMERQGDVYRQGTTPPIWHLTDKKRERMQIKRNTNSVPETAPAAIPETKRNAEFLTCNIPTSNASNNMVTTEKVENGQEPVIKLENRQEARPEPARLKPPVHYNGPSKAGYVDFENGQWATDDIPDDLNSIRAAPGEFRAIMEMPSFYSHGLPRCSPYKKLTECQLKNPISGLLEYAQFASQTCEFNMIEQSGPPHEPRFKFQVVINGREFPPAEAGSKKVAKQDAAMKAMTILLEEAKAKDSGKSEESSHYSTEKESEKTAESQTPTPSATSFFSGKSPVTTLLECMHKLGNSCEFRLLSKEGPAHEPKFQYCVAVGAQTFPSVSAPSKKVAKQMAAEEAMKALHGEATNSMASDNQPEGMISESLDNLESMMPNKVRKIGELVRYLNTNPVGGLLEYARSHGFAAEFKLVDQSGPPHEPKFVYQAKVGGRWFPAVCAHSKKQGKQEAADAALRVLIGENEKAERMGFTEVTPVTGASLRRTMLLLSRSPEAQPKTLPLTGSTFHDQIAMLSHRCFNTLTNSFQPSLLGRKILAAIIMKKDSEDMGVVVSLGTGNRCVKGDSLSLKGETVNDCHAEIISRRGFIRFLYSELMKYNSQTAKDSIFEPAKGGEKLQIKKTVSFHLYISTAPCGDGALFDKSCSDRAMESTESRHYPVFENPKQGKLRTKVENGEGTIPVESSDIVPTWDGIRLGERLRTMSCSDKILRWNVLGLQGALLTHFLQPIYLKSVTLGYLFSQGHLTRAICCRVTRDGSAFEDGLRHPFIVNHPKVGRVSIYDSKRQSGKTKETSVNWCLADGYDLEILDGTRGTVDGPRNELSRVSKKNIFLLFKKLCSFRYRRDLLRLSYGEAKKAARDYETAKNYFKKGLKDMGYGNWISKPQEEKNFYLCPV
UniProt Q9BRQ8: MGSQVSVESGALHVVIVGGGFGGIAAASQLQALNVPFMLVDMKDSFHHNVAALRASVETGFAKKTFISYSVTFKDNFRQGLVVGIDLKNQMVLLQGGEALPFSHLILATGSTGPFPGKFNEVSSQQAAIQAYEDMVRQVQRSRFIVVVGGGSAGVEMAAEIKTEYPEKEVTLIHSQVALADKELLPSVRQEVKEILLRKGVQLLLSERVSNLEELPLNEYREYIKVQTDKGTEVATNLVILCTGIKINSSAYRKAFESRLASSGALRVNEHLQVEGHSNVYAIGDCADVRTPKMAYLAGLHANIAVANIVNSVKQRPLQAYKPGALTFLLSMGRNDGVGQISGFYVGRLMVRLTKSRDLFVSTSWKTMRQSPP
UniProt P00568: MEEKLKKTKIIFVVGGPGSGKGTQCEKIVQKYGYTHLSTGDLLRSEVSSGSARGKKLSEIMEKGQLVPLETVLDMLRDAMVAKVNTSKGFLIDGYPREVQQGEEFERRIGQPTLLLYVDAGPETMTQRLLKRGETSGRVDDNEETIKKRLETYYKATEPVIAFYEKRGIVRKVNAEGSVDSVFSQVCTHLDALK
UniProt Q9NRZ7: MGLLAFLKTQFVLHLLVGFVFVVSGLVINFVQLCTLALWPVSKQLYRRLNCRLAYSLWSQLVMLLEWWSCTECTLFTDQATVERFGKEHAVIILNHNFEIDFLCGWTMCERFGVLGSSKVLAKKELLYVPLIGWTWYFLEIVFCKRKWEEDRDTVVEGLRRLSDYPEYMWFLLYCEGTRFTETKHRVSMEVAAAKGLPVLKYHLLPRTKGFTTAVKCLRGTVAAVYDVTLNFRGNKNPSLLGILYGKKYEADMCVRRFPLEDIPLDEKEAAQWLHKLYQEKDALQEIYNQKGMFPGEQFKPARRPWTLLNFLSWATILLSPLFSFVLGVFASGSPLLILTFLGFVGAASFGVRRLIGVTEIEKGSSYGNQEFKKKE
UniProt O00154: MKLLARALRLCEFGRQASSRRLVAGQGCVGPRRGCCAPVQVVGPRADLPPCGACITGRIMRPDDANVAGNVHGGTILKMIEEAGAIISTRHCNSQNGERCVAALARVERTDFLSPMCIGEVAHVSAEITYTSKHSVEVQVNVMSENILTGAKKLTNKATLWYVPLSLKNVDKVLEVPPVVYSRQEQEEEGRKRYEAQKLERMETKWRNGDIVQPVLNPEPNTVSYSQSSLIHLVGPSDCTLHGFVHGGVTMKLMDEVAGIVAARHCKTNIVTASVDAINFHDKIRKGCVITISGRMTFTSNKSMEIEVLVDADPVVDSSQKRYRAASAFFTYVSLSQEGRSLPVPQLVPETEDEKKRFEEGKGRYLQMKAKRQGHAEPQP
UniProt O14672: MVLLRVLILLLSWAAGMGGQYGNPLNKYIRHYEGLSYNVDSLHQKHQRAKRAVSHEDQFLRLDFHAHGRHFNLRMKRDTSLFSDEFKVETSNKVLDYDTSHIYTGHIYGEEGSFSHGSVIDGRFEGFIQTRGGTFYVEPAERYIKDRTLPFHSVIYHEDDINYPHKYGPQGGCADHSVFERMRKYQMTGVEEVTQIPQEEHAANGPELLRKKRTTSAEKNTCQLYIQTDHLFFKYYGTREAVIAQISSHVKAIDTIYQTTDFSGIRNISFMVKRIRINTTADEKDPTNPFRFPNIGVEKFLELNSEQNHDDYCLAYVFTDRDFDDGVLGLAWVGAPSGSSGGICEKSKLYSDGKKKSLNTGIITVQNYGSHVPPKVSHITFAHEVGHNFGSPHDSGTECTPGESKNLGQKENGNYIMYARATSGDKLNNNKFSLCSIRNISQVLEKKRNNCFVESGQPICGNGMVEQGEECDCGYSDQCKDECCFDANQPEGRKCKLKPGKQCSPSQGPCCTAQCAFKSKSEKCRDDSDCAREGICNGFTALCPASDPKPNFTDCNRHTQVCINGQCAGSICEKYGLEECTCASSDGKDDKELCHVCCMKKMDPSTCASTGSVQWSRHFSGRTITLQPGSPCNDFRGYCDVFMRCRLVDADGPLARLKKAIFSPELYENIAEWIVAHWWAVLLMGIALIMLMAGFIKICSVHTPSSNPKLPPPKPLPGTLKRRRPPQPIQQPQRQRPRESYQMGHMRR
UniProt Q9Y305: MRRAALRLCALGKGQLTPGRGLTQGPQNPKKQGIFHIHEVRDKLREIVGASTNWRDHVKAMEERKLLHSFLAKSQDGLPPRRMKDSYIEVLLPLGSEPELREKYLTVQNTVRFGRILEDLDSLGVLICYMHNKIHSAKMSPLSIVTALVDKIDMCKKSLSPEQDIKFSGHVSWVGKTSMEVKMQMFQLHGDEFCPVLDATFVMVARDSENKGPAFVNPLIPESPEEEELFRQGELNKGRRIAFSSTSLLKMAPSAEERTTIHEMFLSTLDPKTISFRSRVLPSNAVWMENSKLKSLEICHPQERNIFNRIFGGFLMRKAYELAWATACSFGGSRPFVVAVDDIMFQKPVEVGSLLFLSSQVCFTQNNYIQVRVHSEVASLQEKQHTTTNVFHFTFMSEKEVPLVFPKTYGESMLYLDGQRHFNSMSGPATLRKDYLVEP
UniProt Q7Z6V5: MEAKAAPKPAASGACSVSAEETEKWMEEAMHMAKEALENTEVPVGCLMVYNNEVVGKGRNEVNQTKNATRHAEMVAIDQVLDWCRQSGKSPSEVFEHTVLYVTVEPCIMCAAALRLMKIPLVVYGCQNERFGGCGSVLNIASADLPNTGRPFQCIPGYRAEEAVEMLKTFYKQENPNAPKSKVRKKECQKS
UniProt Q9BRR6: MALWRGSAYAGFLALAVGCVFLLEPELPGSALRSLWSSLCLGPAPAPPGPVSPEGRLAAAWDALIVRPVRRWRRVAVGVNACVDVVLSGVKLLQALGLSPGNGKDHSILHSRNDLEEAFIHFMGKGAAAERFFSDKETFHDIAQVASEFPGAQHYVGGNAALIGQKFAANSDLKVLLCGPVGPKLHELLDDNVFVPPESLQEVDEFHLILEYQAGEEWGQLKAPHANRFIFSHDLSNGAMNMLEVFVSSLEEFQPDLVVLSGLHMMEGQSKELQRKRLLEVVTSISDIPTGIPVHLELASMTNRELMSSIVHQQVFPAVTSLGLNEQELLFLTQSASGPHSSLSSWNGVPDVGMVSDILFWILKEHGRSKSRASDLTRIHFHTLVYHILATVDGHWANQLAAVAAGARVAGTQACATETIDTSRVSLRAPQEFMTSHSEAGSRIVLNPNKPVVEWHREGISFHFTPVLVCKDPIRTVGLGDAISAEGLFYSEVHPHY
UniProt Q9UPW5: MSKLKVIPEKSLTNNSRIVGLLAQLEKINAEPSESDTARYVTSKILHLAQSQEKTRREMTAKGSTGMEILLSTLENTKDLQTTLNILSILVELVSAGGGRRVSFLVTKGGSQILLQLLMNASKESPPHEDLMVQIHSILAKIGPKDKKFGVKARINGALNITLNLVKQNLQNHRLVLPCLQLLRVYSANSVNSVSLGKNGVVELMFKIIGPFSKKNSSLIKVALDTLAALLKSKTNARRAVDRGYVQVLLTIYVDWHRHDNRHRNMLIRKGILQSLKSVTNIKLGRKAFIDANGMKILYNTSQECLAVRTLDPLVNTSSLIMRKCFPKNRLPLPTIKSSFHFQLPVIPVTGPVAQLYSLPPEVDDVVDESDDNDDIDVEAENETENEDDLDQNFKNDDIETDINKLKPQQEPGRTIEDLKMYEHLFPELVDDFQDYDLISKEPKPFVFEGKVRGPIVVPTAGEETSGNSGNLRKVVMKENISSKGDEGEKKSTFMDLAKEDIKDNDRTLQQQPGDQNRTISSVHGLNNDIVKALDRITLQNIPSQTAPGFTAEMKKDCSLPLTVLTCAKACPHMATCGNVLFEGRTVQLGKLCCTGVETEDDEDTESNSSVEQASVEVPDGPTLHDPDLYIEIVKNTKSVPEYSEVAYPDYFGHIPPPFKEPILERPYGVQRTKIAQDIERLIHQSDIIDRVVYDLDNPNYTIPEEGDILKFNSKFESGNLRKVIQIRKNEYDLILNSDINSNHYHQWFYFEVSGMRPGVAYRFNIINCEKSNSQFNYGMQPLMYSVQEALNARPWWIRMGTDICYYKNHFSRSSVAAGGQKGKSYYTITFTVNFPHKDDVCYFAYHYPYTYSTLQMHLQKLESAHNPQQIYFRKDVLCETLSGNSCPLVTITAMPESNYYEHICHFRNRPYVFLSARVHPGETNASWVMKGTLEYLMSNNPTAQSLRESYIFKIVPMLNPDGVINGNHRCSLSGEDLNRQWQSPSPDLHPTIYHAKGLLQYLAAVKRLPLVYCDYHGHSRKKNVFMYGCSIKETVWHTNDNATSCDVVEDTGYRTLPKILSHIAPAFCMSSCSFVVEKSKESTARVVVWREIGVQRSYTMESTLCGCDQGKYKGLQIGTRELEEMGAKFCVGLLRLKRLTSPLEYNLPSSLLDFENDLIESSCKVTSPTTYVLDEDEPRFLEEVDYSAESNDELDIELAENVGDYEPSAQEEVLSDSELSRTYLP
UniProt Q96HN2, whole entry, looked up: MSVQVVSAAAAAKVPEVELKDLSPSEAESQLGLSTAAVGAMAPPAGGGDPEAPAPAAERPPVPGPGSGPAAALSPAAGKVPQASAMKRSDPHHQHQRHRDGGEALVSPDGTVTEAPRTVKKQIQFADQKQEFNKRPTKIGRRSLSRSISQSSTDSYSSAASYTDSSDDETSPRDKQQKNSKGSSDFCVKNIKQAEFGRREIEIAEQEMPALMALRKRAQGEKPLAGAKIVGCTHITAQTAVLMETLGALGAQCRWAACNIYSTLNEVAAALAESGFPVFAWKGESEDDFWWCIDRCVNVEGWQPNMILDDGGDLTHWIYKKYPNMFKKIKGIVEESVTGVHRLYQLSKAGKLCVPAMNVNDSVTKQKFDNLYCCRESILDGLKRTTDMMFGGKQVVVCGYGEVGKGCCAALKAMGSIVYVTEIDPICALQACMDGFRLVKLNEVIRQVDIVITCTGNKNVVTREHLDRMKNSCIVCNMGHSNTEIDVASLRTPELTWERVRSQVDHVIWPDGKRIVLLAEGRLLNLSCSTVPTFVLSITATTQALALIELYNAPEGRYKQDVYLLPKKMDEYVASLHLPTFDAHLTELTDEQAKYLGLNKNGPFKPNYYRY
UniProt Q96BJ3: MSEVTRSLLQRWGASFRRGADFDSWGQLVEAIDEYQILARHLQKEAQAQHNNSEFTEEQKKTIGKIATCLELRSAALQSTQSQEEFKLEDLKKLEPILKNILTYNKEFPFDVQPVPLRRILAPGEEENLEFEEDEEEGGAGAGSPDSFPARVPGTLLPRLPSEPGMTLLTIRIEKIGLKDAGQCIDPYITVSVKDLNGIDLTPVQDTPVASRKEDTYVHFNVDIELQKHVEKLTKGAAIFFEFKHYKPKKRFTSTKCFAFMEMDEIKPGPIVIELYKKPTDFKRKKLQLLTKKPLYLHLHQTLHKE

How the values were obtained:
Experiment in all cases: log2 fold change, soluble protein after heating vs DMSO (PISA); higher = thermal stabilisation; K562 lysate, 10 uM; active = over 0.2 and 3.5 SD of the protein, either way, in both replicates (recomputed)
erlotinib = compound: C#Cc1cccc(Nc2ncnc3cc(OCCOC)c(OCCOC)cc23)c1 [erlotinib]
Procedure, shortened: (§1)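 Pellets of K562 cells were dounce-homogenised in PBS pH 7.4 with 1 mM MgCl2, and the crude extract was held at 1 mg/mL protein for a 30 min treatment with 10 μM compound. Aliquots were heated for 3 min over 48°C-58°C and pooled before NP-40 was added to 0.5% at 4°C. The supernatant from 21,000xg for 90 min was quantified by TMTpro 16plex LC-MS/MS with channel sums equalised. Values are reported from duplicates as log-two fold change in thermal stability relative to solvent controls.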

[1] = compound: C/C(=N\NC(=O)C1=CC(=CC=C1)S(=O)(=O)N2CCOCC2)/C3=C(C=CC(=C3)Cl)O
Procedure, shortened: as §1

[2] = compound: C1=CC(=CC=C1C2=NC3=C(N2)C=C(C=C3)C(=O)N)OC4=CC=C(C=C4)Cl
Procedure, shortened: as §1

[3] = compound: C1=CC2=C(C=CC(=C2)/C=C\3/C(=O)NC(=NCC4=CC=CS4)S3)N=C1
Procedure, shortened: as §1

[4] = compound: C1=CC2=NC=CN=C2C=C1/C=C/3\C(=O)NC(=O)S3
Procedure, shortened: as §1

[5] = compound: C1=CC=C(C=C1)C2=NC(=C(N2)C3=CC=NC=C3)C4=CC(=C(C=C4)Cl)O
Procedure, shortened: as §1

[6] = compound: C1=CC=C2C(=C1)C3=NNC4=CC=CC(=C43)C2=O
Procedure, shortened: as §1

[7] = compound: C1CCN(C1)C(=O)NC2=CC=CC(=C2)NC3=NC=C(C(=N3)NCCC4=CN=CN4)Br
Procedure, shortened: as §1

[8] = compound: C1CN(CCC1(CC2=CC=C(C=C2)Cl)N)C3=NC=NC4=C3C=CN4
Procedure, shortened: as §1

IRAK-1-4 Inhibitor I = compound: C1COCCN1CCN2C3=CC=CC=C3N=C2NC(=O)C4=CC(=CC=C4)[N+](=O)[O-] [IRAK-1-4 Inhibitor I]
Procedure, shortened: as §1

ibrutinib = compound: C=CC(=O)N1CCC[C@@H](n2nc(-c3ccc(Oc4ccccc4)cc3)c3c(N)ncnc32)C1 [ibrutinib]
Procedure, shortened: as §1

[9] = compound: CC(=O)c1cnc2ccc(-c3cc(Cl)c(O)c(Cl)c3)nc2c1N[C@H]1CC[C@H](CN(C)C)CC1
Procedure, shortened: as §1

ralimetinib = compound: CC(C)(C)Cn1c(N)nc2ccc(-c3[nH]c(C(C)(C)C)nc3-c3ccc(F)cc3)nc21 [ralimetinib]
Procedure, shortened: as §1

[10] = compound: CC(C)(O)CC(=O)NCCn1ccc2ncnc(Nc3ccc(Oc4cccc(C(F)(F)F)c4)c(Cl)c3)c21
Procedure, shortened: as §1

[11] = compound: CC(C)C1=C2N=C(C=C(N2N=C1)NCC3=CC=CC=C3)NCCCCCCN
Procedure, shortened: as §1

[12] = compound: CC1=C(C(CC(=O)N1)C2=CC=C(C=C2)C(F)(F)F)C(=O)NC3=C(C=C4C(=C3)C=NN4)F
Procedure, shortened: as §1

[13] = compound: CC1=C(C2=C(C=C1)C(=O)C3=CC=CC=C3N2CCCN)C
Procedure, shortened: as §1

[14] = compound: CC1=C(C=C(C=C1)NC(=O)C2=CC(=CC=C2)C(C)(C)C#N)NC3=CC4=C(C=C3)N=CN(C4=O)C
Procedure, shortened: as §1

[15] = compound: CC1=C(C=C(C=C1)NC(=O)C2=CC(=CC=C2)N(C)C)NC(=O)C3=CC=C(C=C3)O
Procedure, shortened: as §1

[16] = compound: CC1=CC=C(C=C1)SC2=C3C=C(SC3=CN=C2)C(=O)N
Procedure, shortened: as §1

| Target | log2 fold change (erlotinib) | log2 fold change [1] | log2 fold change [2] | log2 fold change [3] | log2 fold change [4] | log2 fold change [5] | log2 fold change [6] | log2 fold change [7] | log2 fold change [8] | log2 fold change (IRAK-1-4 Inhibitor I) | log2 fold change (ibrutinib) | log2 fold change [9] | log2 fold change (ralimetinib) | log2 fold change [10] | log2 fold change [11] | log2 fold change [12] | log2 fold change [13] | log2 fold change [14] | log2 fold change [15] | log2 fold change [16] |
| --- | --- | --- | --- | --- | --- | --- | --- | --- | --- | --- | --- | --- | --- | --- | --- | --- | --- | --- | --- | --- |
| ADAR isoform 4 (UniProt P55265) | inactive: -0.029 | inactive: -0.114 | inactive: -0.06 | inactive: -0.031 | inactive: 0.002 | inactive: 0.001 | inactive: -0.029 | inactive: 0.002 | inactive: -0.017 | inactive: 0 | inactive: 0.152 | inactive: -0.025 | inactive: 0.029 | inactive: -0.019 | inactive: -0.03 | inactive: 0.018 | inactive: 0.016 | inactive: -0.002 | inactive: 0.015 | inactive: -0.021 |
| AIFM2 (UniProt Q9BRQ8) | inactive: -0.094 | inactive: 0 | inactive: 0.224 | inactive: 0.071 | inactive: -0.117 | inactive: 0.117 | inactive: 0.068 | inactive: -0.025 | inactive: 0.018 | inactive: -0.01 | inactive: -0.016 | inactive: -0.075 | inactive: 0.028 | active: 0.643 | inactive: 0.275 | inactive: -0.033 | inactive: -0.161 | inactive: -0.04 | inactive: -0.051 | inactive: 0.024 |
| AK1 (UniProt P00568) | inactive: -0.023 | inactive: 0.002 | inactive: 0.014 | inactive: -0.036 | inactive: 0.002 | inactive: -0.004 | inactive: 0.047 | inactive: 0.067 | inactive: -0.003 | inactive: -0.002 | inactive: -0.001 | inactive: 0.006 | inactive: 0.006 | inactive: -0.021 | inactive: -0.029 | inactive: -0.008 | inactive: 0.043 | inactive: -0.024 | inactive: -0.002 | inactive: 0.009 |
| AGPAT3 isoform 3 (UniProt Q9NRZ7) | inactive: 0.056 | inactive: 0.046 | inactive: -0.084 | inactive: 0.05 | inactive: 0.023 | inactive: -0.004 | inactive: -0.077 | inactive: -0.036 | inactive: 0.013 | inactive: -0.025 | inactive: -0.028 | inactive: -0.021 | inactive: 0.045 | inactive: -0.04 | inactive: -0.047 | inactive: 0.069 | inactive: -0.011 | inactive: 0.013 | inactive: 0.011 | inactive: -0.021 |
| AFF4 (UniProt Q9UHB7) | inactive: -0.003 | inactive: -0.152 | inactive: 0.007 | inactive: -0.063 | inactive: 0.021 | inactive: 0.048 | inactive: 0.003 | inactive: 0.032 | inactive: 0.016 | inactive: -0.031 | inactive: 0.172 | inactive: -0.009 | inactive: -0.049 | inactive: 0.033 | inactive: -0.008 | inactive: -0.028 | inactive: -0.047 | inactive: 0.009 | inactive: 0.002 | inactive: 0.024 |
| ACOT7 isoform 7 (UniProt O00154) | inactive: 0.003 | inactive: 0.001 | inactive: 0.013 | inactive: -0.005 | inactive: 0.012 | inactive: 0.027 | inactive: 0.016 | inactive: -0.009 | inactive: -0.001 | inactive: 0.016 | inactive: 0.025 | inactive: -0.006 | inactive: -0.027 | inactive: -0.035 | inactive: -0.008 | inactive: -0.002 | inactive: 0.012 | inactive: 0.039 | inactive: -0.017 | inactive: -0.015 |
| ADAM10 (UniProt O14672) | inactive: -0.041 | inactive: -0.139 | inactive: -0.003 | inactive: 0.03 | inactive: 0.002 | inactive: 0.003 | inactive: -0.029 | inactive: -0.021 | inactive: 0.006 | inactive: 0.003 | inactive: -0.01 | inactive: -0.001 | inactive: 0.037 | inactive: -0.02 | inactive: -0.02 | inactive: 0.021 | inactive: 0.014 | inactive: -0.006 | inactive: -0.023 | inactive: -0.043 |
| ACOT9 isoform 4 (UniProt Q9Y305) | inactive: -0.012 | inactive: -0.037 | inactive: 0.019 | inactive: -0.007 | inactive: 0.035 | inactive: 0.01 | inactive: -0.013 | inactive: -0.012 | inactive: -0.021 | inactive: -0.031 | inactive: -0.008 | inactive: -0.001 | inactive: 0.012 | inactive: 0.02 | inactive: 0.057 | inactive: 0.034 | inactive: 0.056 | inactive: -0.056 | inactive: -0.018 | inactive: 0.021 |
| ADAT2 (UniProt Q7Z6V5) | inactive: 0.006 | inactive: 0.146 | inactive: 0.016 | inactive: 0.003 | inactive: 0.03 | inactive: 0.095 | inactive: 0.049 | inactive: -0.023 | inactive: -0.049 | inactive: 0.031 | inactive: -0.069 | inactive: 0.002 | inactive: 0.01 | inactive: -0.045 | inactive: -0.014 | inactive: -0.023 | inactive: -0.034 | inactive: 0.043 | inactive: -0.027 | inactive: -0.028 |
| AGFG1 isoform 4 (UniProt P52594) | inactive: -0.019 | inactive: -0.034 | inactive: 0.028 | inactive: -0.033 | inactive: -0.013 | inactive: -0.05 | inactive: 0.054 | inactive: -0.041 | inactive: -0.009 | inactive: 0.02 | inactive: 0.018 | inactive: 0.006 | inactive: -0.035 | inactive: -0.035 | inactive: 0.007 | inactive: -0.004 | inactive: 0.013 | inactive: 0.027 | inactive: -0.021 | inactive: -0.02 |
| ADPGK (UniProt Q9BRR6) | inactive: -0.037 | inactive: 0.053 | inactive: -0.135 | inactive: 0.045 | inactive: 0.01 | inactive: 0 | inactive: -0.035 | inactive: -0.086 | inactive: 0.026 | inactive: 0.008 | inactive: 0.039 | inactive: 0.015 | inactive: 0.026 | inactive: -0.026 | inactive: 0.014 | inactive: 0.052 | inactive: -0.038 | inactive: -0.06 | inactive: 0.008 | inactive: -0.034 |
| AGTPBP1 (UniProt Q9UPW5) | inactive: -0.033 | inactive: -0.084 | inactive: 0.027 | inactive: -0.029 | inactive: 0.042 | inactive: -0.053 | inactive: -0.039 | inactive: -0.017 | inactive: 0.005 | inactive: 0.022 | inactive: -0.255 | inactive: 0.001 | inactive: 0.013 | inactive: -0.058 | inactive: 0.008 | inactive: -0.026 | inactive: 0.051 | inactive: 0.077 | inactive: 0.005 | inactive: 0.012 |
| ACTN4 (UniProt O43707) | inactive: 0.005 | inactive: 0.035 | inactive: 0.019 | inactive: -0.006 | inactive: -0.012 | inactive: 0.007 | inactive: 0.006 | inactive: 0.028 | inactive: -0.004 | inactive: 0.02 | inactive: 0.017 | inactive: -0.006 | inactive: 0.002 | inactive: -0.018 | inactive: 0.008 | inactive: -0.011 | inactive: 0.002 | inactive: 0.007 | inactive: -0.007 | inactive: -0.013 |
| AGO1 (UniProt Q9UL18) | inactive: 0.045 | inactive: -0.089 | inactive: 0.031 | inactive: 0.029 | inactive: -0.026 | inactive: 0.021 | inactive: 0.02 | inactive: -0.028 | inactive: 0.064 | inactive: 0.016 | inactive: 0.026 | inactive: 0.009 | inactive: 0.004 | inactive: 0.001 | inactive: 0 | inactive: 0.006 | inactive: -0.043 | inactive: -0.025 | inactive: -0.005 | inactive: 0.009 |
| AHCYL2 (UniProt Q96HN2) | inactive: 0.026 | inactive: 0.094 | inactive: 0.04 | inactive: 0.052 | inactive: 0.01 | inactive: 0.02 | inactive: 0.013 | inactive: -0.005 | inactive: 0.017 | inactive: 0.005 | inactive: -0.016 | inactive: -0.039 | inactive: -0.002 | inactive: -0.001 | inactive: -0.005 | inactive: -0.008 | inactive: 0.002 | inactive: 0.026 | inactive: 0 | inactive: -0.011 |
| AIDA (UniProt Q96BJ3) | inactive: -0.012 | inactive: 0.007 | inactive: 0.019 | inactive: -0.032 | inactive: -0.011 | inactive: 0.023 | inactive: -0.006 | inactive: -0.007 | inactive: 0.045 | inactive: 0.007 | inactive: 0.028 | inactive: 0.02 | inactive: -0.001 | inactive: -0.044 | inactive: -0.035 | inactive: -0.011 | inactive: 0.001 | inactive: 0.006 | inactive: 0.014 | inactive: -0.034 |

2 entries drawn at random from the list so far:

| Target | log2 fold change (erlotinib) | log2 fold change [1] | log2 fold change [2] | log2 fold change [3] | log2 fold change [4] | log2 fold change [5] | log2 fold change [6] | log2 fold change [7] | log2 fold change [8] | log2 fold change (IRAK-1-4 Inhibitor I) | log2 fold change (ibrutinib) | log2 fold change [9] | log2 fold change (ralimetinib) | log2 fold change [10] | log2 fold change [11] | log2 fold change [12] | log2 fold change [13] | log2 fold change [14] | log2 fold change [15] | log2 fold change [16] |
| --- | --- | --- | --- | --- | --- | --- | --- | --- | --- | --- | --- | --- | --- | --- | --- | --- | --- | --- | --- | --- |
| ADPGK (UniProt Q9BRR6) | inactive: -0.037 | inactive: 0.053 | inactive: -0.135 | inactive: 0.045 | inactive: 0.01 | inactive: 0 | inactive: -0.035 | inactive: -0.086 | inactive: 0.026 | inactive: 0.008 | inactive: 0.039 | inactive: 0.015 | inactive: 0.026 | inactive: -0.026 | inactive: 0.014 | inactive: 0.052 | inactive: -0.038 | inactive: -0.06 | inactive: 0.008 | inactive: -0.034 |
| AFF4 (UniProt Q9UHB7) | inactive: -0.003 | inactive: -0.152 | inactive: 0.007 | inactive: -0.063 | inactive: 0.021 | inactive: 0.048 | inactive: 0.003 | inactive: 0.032 | inactive: 0.016 | inactive: -0.031 | inactive: 0.172 | inactive: -0.009 | inactive: -0.049 | inactive: 0.033 | inactive: -0.008 | inactive: -0.028 | inactive: -0.047 | inactive: 0.009 | inactive: 0.002 | inactive: 0.024 |
